The results in this text go back to a protein production outcome set (Wang et al. 2014).

A short description of the data set: label from the status in PepcDB records.
With “EGFIEALAEPAALAAADGRVLAANGPWREVMGEQRRLPKGVAGSSLFAALVQARQGQMAEGMLSAGGTDYTAKVSRLAGGRLMIRLAPIVVAEPVVEDASPAPVAERAAPPPSSLDAFAGASPFGAALLEGLEPFTSRVLETNPALTTMTGAKAGVLFGDLIDAASRAEAETRLNEGRAGPYEVRLARDPSRIAHLYLYRAEGRLVAYMIDVSEQKQIELQLSQAQKMQAIGQLAGGVAHDFNNLLTAI”, the protein production entry is on record as “failed”.

In the case of “EVKPEINFVNVGERCNVAGSRKFLRLINEKKYDEALSIARKQVEDGALIIDVNMDDGLLDAKEEMTTFLNLVASEPEIARVPVMIDSSKWEVIEAGLKCLQGKSIVNSISLKEGEEKFLEHARTVRQYGAAVVVMAFDEKGQADTATRKIEVCERAYHLLVDKIGFNPHDIIFDPNVLAVATGIEEHNNYAVDFIEATAWIKKNLPGAHISGGVSNLSFSFRGNNYIREAMHAVFLYHAIQKGMDMGIVNPGTSVLYTDIPADVLERIEDVVLNRRSDAAERLIELADRLKEASAGNTSAGQP”, the protein production result was “not failed”.

On to “FVNIGERCNVAGSRKFLRLVNEKKYDEALSIARQQVEDGALVIDVNMDDGLLDARTEMTTFLNLIMSEPEIARVPVMIDSSKWEVIEAGLKCLQGKSIVNSISLKEGEEVFLEHARIIKQYGAATVVMAFDEKGQADTAARKIEVCERAYRLLVDKVGFNPHDIIFDPNVLAVATGIEEHNNYAVDFIEATGWIRKNLPGAHVSGGVSNLSFSFRGNNYIREAMHAVFLYHAIQQGMDMGIVNPGTSVLYSDIPADTLEKIEDVVLNRRPDAAERLIELAEA”, for which the protein production result is listed as “not failed”.

For the sequence “LRLSEERYHLAMDAVEDGLWDWYLDSEHIICNPSYYSMLGYKPNEFPALVSAIDQLTHPDDRIRVEEYRNQYLENPVDAYEIEFRILGKNSSYHWVLSRGRVVEFTTDGQPKRMVGTHKDITRHKSNEVALLEAKQDAELANLYKSEFLANMSHEIRTPMNAIIGML”, the protein production entry was “failed”.

As to “LVSLEQEVQEKYSQIQNQLQRRADLIPNLVETVKGYAAHEKEILEEIANARAKLIGAKTPQESAQADAELSSALSRLLAIAENYPNLKADANFRQLMDELAGTENRIAVARRDYNEAVKKYNTAIKKFPGVIFAKMFGFEEKQYFEAKPGAEEVPEVKF”, the protein production entry is “not failed”.

With “MADMWILDDKDKKQTIISSEAKEACRFYDAPFREELNVGSSFSFVADADHEDSVHIKPENQVVFEDRRGRKRNFVIKELEDADDGANARIRAYCEPALSELYDEFVTDIRPQNRTAQYVLDRILEGTRWRANVPVDLGLHSTNFYRISVMEAINQILQIWGGEYYDEVVFDENDNIVDRVIHILPRRGQDTGKRAEIDKDIQEITRTVLSYPVTALYGYGASLETEGGGNTRYIDFSDVEWVKANGDPVDKPKGQEWVGDPDLLEKFGRIMYDGQTKRHRFQKWQDDSIEDPAELLRKTYEALINHEMVQVNYSLKLELLEYISGYEHEAVDLGDTMIAIDDNFRHPIEVQTRVIAIEYDLSDPVNTAQVEMGQFLDLYSTEKRIKELETTIDTNRGKWDNGGDPIIGDGSFPDKVPPVPSNIKVESLFQGVSITWDYNPSSYIAAYQIFASPNKGFTPLDENLIFSGKLSGYEHTPGVDQVWYYRMRTINTHGTPSPFTQEFTGVTRRILTDDIVFGAVTAEKLANLSVTAEKLSQKFDESNILPGSVLRPGELGNVNGASWSVKEGEFNEVTVTRKADDTRAGFGFSAFYRSTLRLTKGEKYTLSFEVKRNNTLNINFIYLKDDSGQYQLDAPDFNDISSFPSDEFVRVDYVFQSPITTETARLWLGGNKVGDENPSVTYRKIQIRKGDVRKEFAFSPYDVMLTEQAVSSALIAKAAIQSAHIQEAAITTAAIANGAITRAKLGTAIIGTAQIEDGAITNAKIANLSADKINAGTIKGITIEGSLIRGARIEPLSSSSAYESYIEANKIYQLRKTRYGGYQDRYEELDISSGSIIQDYGNRLDDDSHESLNKVEISKGKVALSSGKTFSTGTTSRMEIFSQLGTSDNGLYGGNFITMYRNDEKVFELRQDSWTDPDTNVIMPQMSIRAEKVDFVSFFEDVSVYSEKSIYHSAERSVALFSKDGPVTVYAKDGMKLNRGSNGEYTTSITADDALKIASKGTITLEDTEFNGASLYLGTDSRGPRIWSYSINKRTTTAAANLHMDQYGTFHKVTSSQKYKINIEEFPNDRVENILKLNPKTWFDKKAVEAYAEILESGQEDDENKPYFERIPGLIAEEVFEAGLKEFVFFGKPDENGNREIEGIMYDRLFALLIPIVRDLKTRIENIESTLN”, the protein production result was “failed”.

In the case of “MAMMVENSYGGYGGGGGERIQLMVEGQGKAVPAPFLTKTYQLVDDPATDHVVSWGDDDTTFVVWRPPEFARDLLPNYFKHNNFSSFVRQLNTYGFRKIVPDRWEFANEFFKRGEKHLLCEIHRRKTSQMIPQQHSPFMSHHHAPPQIPFSGGSFFPLPPPRVTTPEEDHYWCDDSPPSRPRVIPQQIDTAAQVTALSEDNERLRRSNTVLMSELAHMKKLYNDIIYFVQNHVKPVAPSNNSSYLSSFLQKQQQQQPPTLDYYNTATVNATNLNALNSSPPTSQSSITVLEDDHTNHHDQSNMRKTKLFGVSLPSSKKRSHHFSDQTSKTRLVLDQSDLALNLMTASTR”, the protein production result is “failed”.

For the sequence “MASFDEAPPGNAKAGEKIFRTKCAQCHTVEAGAGHKQGPNLNGLFGRQSGTTAGYSYSAANKNKAVEWEEKALYDYLLNPKKYIPGTKMVFPGLKKPQDRADLIAYLKESTAPK”, the protein production entry is recorded as “failed”.

As to “MCGGAVISDYIAPEKIARSSGKSSWRSNGVFDCSIYDFDGNFDELESDEPFVFSSTHKHHASGSASDGKKKQSSRYKGIRRRPWGRWAAEIRDPIKGVRVWLGTFNTAEEAARAYDLEAKRIRGAKAKLNFPNESSGKRKAKAKTVQQVEENHEADLDVAVVSSAPSSSCLDFLWEENNPDTLLIDTQWLEDIIMGDANKKHEPNDSEEANNVDASLLSEELLAFENQTEYFSQMPFTEGNCDSSTSLSSLFDGGNDMGLWS”, the protein production entry was “failed”.

For the sequence “MECKTKGKHQHSLNLLDKIKNMKELEEMIDVVLIAEEEKFPCHRLVLAAFSPYFKAMFTCGLLECTQREVILYDITAESVSVILNYMYSAVLEINYANVQTVAMAAYFMQMEEVFSVCQNYMMDHMDASNCIGIYYFAKQIGAEDLSDQSKKYLYQHFAEVSLHGEILDIEAHQLLALIKSDDLNISREESILDLVLRWVNHNQALRTEHLVELLKQVRLELINASFLRQALRRNTMLLCDGSCIDIIQNAFKAIKTPQQHPSNLRYGMETTSLLLCIGNNSSGIRSRHRSYGDASFCYDPVSHKTYFISSPKYGEGLGTVCTGVVMENNTVIVAGEATATRLSRQKSKNIEIYRCVSHSRFGIFCFVLLR”, the protein production entry is recorded as “failed”.

In the case of “MENPQDIFSSNGGCLSDIVIEKYLVESKESVSHVQLACSMQDCAFPLDGTELCIWNTKDPSHQLLILRGHHQPITAMAFGNKVNPLLICSASLDYVIMWNLDECREKVLQGLVPRGTVMGSLLGKVLCLQLSLDDHVVAVCAGNKIFMLDIEQRFSVTYIERPDVNNRHKVPPPTFLHTFSQTQAVRAELQGHLGPVTAVEFCPWRAGTLISASEDRGFKVWDHCTGSLIYSSSVLSAYPLLSLFIDAESRQLVTGCADGQLWIFSLMDGHHYRRVARVDLRKKTETFSTRRVKSGLCSQPEESQLPSTSALGKGEQVEVTFPVLRLAPCDLSLIPNSACGCLSSENTRCVWIGSSVGLFVFNLANLEVEAALYYKDFQSLSILLAGSCALRNRTADQKVLCLLASLFGGKIAVLEINPAALVRAQQCPSMGQSLSVPASSCVLPTSPLYLGIAKEKSTKAASEQRRAARNVMKDQRLVFHSKVRSSGYASAPHVTMFSPKTNIKSEGKGSSRSRSSCAREAYPVECAVPTKPGPQVAAAPTCTRVCCIQYSGDGQWLACGLANHLLLVFDASLTGTPAVFSGHDGAVNAVCWSQDRRWLLSAARDGTLRMWSARGAELALLLGKDMFSKPIQSAQFYYIDAFILLSSGPEFQLLRYHIDTCKDEIKRYKQKSKSKLICRLSTTGAVDMTSLSAVNDFYSHIVLAAGRNRTVEVFDLNAGCSAAVIAEAHSRPVHQICQNKGSSFTTQQPQAYNLFLTTAIGDGMRLWDLRTLRCERHFEGHPTRGYPCGIAFSPCGRFAACGAEDRHAYVYEMGSSTFSHRLAGHTDTVTGVAFNPSAPQVQSCSVAHAGVQWHDLGSLQPPPSRFKQFFCLSLPSSWDYSLPQLPWMVNSSSF”, the protein production entry is given as “failed”.

For the sequence “MFGFKKAASKAEDAARMVRQLESVLDHADNLIMLCDTTRDNTIFYMNQTARDVLGRHREMMNQKFRAGVDVNRAHGHSIHQFHRDPEHNRRILADLASGKIPQHTAMIPVGEVMFETKVFPIWDSANPSQLLCFMASFQDVSSEIRAQKLQEQGNQRRDFLEARVNELSENMQAMSATIQNVAVQTASASESAELMLGEGRKGAGIVSETSSGMKNVGGMVRDTADSLESLGQRSETIGQIVNVIKDIADQTNLLALNAAIEAARAGEMGRGFAVVADEVRKLAERTTKATQEIGDMIRDIQNEVKQNVDAIERGRQQVDATENDFQRAEQALGIIVGEINNMRDFVVQIANAAEEQAATSQDIADKLAEIVRQS”, the protein production result is on record as “failed”.

In the case of “MFGLRTRNQEAESEYRRFIKGLSDSMAMIEFDTRGIILNANDLFLSCVGYTREAIVGKHHSIFCDRGYVQSPRYQQFWDDLKMGKHKRGTFERLTSQRERLVLEASYFPIESEHGQIEKVVKIASDVTQQRLESEQKEAILNALDLSLATIEFDREGYILTANQNFLKTLGYELSDVQGKHHKLFCFDDFYQENPGFWKDLAAGQFKSGQFLRRSASGDKVYIEATYNPIFDPAGNVIKVVKFASDITDKVQRDLNISQAIADSSFIARNASEEATSNVCGAEHSLNEFRTMIEEVLRAVTACDDKVQELFKTSQQVTEIVKVIDSIASQTNLLALNAAIEAARAGEHGRGFAVVADEVRTLATRTSTSIDEINHIVLSNQSLTTETRSFIEVINQGFLSSMSKLLEVDEFMKSIDEGSHLTVESISALRAIVNQDAHLHLNSASNG”, the protein production result is listed as “failed”.

For the sequence “MGRRPGVDGGIRPDRPAAPHPRLHRPDGCTPGGGAGPGGRHLRWGGRWWRKRVKCAALFYPPGISAMPGTSVSDLSTATAVDAPALLPLPVARPSAPAVVRGKLYIKTHGCQMNEYDSAKMADVLAASEGLELTDNPEEADVVLVNTCSIREKAQEKVFSQLGRWKALKAGGKPVIIGVGGCVASQEGEAIVKRAPYVDLVFGPQTLHRLPELIRARRESGKSQVDISFPEIEKFDRLPEPRAEGPSAFVSIMEGCSKYCSFCVVPYTRGEEVSRPFEDVLVEVAQLAAQGVREINLLGQNVNAYRGAYGADAGDPAQYADLGLLIRTIAQIEGIGRIRFTTSHPLEFSDSLVDAYRDVPQLANYLHLPVQAGSDRILSAMKRGYTALEFKSRIRKLRAVRPDISISSDFIVGFPGETEADFEKTMKLIEDVGFDQSFSFVYSRRPGTPASDLQDDTPETVKQARLARLQAHISAHAASISQSMVGSVQRVLVEGPSRRDPNELTGKSENMRPVNFPGNPRLIGQFVDVLITEAMSNSLRGRIQLDDSAH”, the protein production result is given as “failed”.
